Test results published in US6391575B1, “Methods for detecting membrane derived caspase activity and modulators thereof” (IDUN Pharmaceuticals, Inc., priority 1999, dated 2002).
Not every detail of the peptide structures is certain; ends, links or a residue may be inferred. Where a SMILES comes first, the peptide text is derived from it.

Legend:
Type in all cases: biochemical
[1] = test system: cortical cell HM derived caspase (caspase-1 treated); test: Inhibition of DEVD-amc cleavage, cortical cell heavy membrane, caspase-1 treated; conditions: mouse E15 primary brain cortical cells
[2] = target: MN9D HM derived caspase (caspase-1 treated); test: Inhibition of DEVD-amc cleavage, MN9D heavy membrane, caspase-1 treated; conditions: mouse dopaminergic MN9D cell line
[3] = target: T1, recombinant human caspase-3 (His)6 (Homo sapiens, UniProt P42574); test: Inhibition of DEVD-amc cleavage by recombinant caspase-3; conditions: purified fully-processed recombinant human caspase-3, read-out: IC50 r-caspase-3 (His)6
T1 construct: very similar to those for purified fully-processed recombinant human caspase-3; His6 (C); made in house; host or cells: E. coli BL21 (DE3), pET21b, Ni-chelate purified
T1 sequence (P42574 29-175 limits assumed): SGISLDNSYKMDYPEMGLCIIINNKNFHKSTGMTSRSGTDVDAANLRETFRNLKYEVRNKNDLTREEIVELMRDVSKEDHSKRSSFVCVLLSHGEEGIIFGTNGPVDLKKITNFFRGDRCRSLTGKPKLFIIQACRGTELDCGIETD
T1 sequence (P42574 176-277 limits assumed): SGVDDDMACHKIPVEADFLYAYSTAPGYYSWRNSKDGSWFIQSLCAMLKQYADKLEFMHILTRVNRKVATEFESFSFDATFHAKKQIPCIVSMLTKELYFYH

[4] = target: T2, 697-neo HM derived caspase (spontaneous activity) (Homo sapiens, UniProt P42574); test: Inhibition of DEVD-amc cleavage, 697-neo heavy membrane, spontaneous activity; conditions: enzyme pretreated with inhibitor 30 min at room temperature
T2 construct: endogenous in cells
T2 sequence (P42574 29-175 limits assumed): T1 sequence (P42574 29-175 limits assumed)
T2 sequence (P42574 176-277 limits assumed): T1 sequence (P42574 176-277 limits assumed)

[5] = target: T3, 697-neo HM derived caspase (caspase-1 treated) (Homo sapiens, UniProt P42574); test: Inhibition of DEVD-amc cleavage, 697-neo heavy membrane, caspase-1 treated; conditions: enzyme pretreated with inhibitor 30 min at room temperature
T3 construct: endogenous in cells
T3 sequence (P42574 29-175 limits assumed): T1 sequence (P42574 29-175 limits assumed)
T3 sequence (P42574 176-277 limits assumed): T1 sequence (P42574 176-277 limits assumed)

[6] = target: T4, 697 Bcl-2 HM derived caspase (caspase-1 treated) (Homo sapiens, UniProt P42574); test: Inhibition of DEVD-amc cleavage, 697 Bcl-2 heavy membrane, caspase-1 treated; conditions: enzyme pretreated with inhibitor 30 min at room temperature
T4 construct: endogenous in cells
T4 sequence (P42574 29-175 limits assumed): T1 sequence (P42574 29-175 limits assumed)
T4 sequence (P42574 176-277 limits assumed): T1 sequence (P42574 176-277 limits assumed)

Row | Structure (SMILES) | IC50 [1] | IC50 [2] | IC50 [3] | IC50 [4] | IC50 [5] | IC50 [6]
1 | CC(=O)N[C@@H](CC(=O)O)C(=O)N[C@@H](CCC(=O)O)C(=O)N[C@H](C(=O)N[C@H](C=O)CC(=O)O)C(C)C [DEVD-ald] | 1 nM | 0.72 nM | – | – | – | –
2 | CC(=O)N[C@@H](CC(=O)O)C(=O)N[C@@H](Cc1ccccc1)C(=O)N[C@@H](CC(C)C)C(=O)N[C@H](C=O)CC(=O)O [DFLD-ald] (Ac-DFLD-aldehyde) | 2.3 nM | 2.5 nM | 1.5 nM | 3.4 nM | 4.5 nM | 3.6 nM
